# Reference: doi:10.1101/2024.10.23.619882
# Results are given in words; binding and its absence hold for the method and conditions named. Binding calls can cover weak binding; strength is not graded here. Tags and fused reporters may be left off the sequences shown. For part of these data: In cells and extracts the contact can be indirect.
# T1: GST-tagged SH3 domain of EndoA2 (rat) (UniProt O35964)
# T1 sequence: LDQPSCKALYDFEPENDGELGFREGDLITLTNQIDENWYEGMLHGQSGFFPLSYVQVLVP
# Assays:
# [1] = biological target: T1, GST-tagged SH3 domain of EndoA2 (rat); experiment: pull-down
# [2] = biological target: Myc-tagged NHSL1-F1 with the 9 EndoA2 sites that do not bind Abi mutated (human); experiment: far-Western, overlay or dot blot
# [3] = biological target: Myc-tagged wild-type NHSL1-F1 (human); experiment: far-Western, overlay or dot blot
binding [1],binding [2],binding [3],Molecule
binds,–,–,Myc-tagged wild-type NHSL1-F1 (human)
–,binds,binds,"MBP-tagged EndoA2 SH3 domain (domain or fragment, UniProt O35964 306-365) LDQPSCKALYDFEPENDGELGFREGDLITLTNQIDENWYEGMLHGQSGFFPLSYVQVLVP"
